Here are results for 37 targets from the supplement of paper PMC12819154, “High-throughput peptide-centric local stability assay extends protein–ligand identification to membrane proteins, tissues and bacteria” (Nature Structural & Molecular Biology, 2025).

Protein sequences, listed by entry. Tags and fused reporters are not part of them. Lines headed by an entry give the natural chain unless they say otherwise; changes in a name come on top.
UniProt Q86YV9: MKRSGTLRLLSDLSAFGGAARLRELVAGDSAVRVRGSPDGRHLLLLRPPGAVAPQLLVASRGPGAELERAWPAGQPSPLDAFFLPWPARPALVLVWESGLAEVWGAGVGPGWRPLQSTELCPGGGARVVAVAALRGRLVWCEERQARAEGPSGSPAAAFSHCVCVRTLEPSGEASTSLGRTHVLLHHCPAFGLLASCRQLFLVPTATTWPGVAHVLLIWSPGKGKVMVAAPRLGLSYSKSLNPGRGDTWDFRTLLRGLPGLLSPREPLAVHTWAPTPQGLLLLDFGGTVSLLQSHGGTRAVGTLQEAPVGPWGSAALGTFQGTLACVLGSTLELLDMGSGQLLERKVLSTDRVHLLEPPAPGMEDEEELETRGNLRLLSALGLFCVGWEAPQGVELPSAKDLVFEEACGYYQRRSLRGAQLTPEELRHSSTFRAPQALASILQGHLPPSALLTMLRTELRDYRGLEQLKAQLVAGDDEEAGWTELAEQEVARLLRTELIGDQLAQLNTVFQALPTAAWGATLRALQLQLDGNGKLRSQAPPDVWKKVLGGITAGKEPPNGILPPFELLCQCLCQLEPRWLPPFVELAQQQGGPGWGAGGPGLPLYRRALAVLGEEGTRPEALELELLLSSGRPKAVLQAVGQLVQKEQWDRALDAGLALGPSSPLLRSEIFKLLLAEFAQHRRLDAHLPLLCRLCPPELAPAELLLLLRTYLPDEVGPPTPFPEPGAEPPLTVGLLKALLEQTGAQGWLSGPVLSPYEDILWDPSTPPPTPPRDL
UniProt Q8IY47: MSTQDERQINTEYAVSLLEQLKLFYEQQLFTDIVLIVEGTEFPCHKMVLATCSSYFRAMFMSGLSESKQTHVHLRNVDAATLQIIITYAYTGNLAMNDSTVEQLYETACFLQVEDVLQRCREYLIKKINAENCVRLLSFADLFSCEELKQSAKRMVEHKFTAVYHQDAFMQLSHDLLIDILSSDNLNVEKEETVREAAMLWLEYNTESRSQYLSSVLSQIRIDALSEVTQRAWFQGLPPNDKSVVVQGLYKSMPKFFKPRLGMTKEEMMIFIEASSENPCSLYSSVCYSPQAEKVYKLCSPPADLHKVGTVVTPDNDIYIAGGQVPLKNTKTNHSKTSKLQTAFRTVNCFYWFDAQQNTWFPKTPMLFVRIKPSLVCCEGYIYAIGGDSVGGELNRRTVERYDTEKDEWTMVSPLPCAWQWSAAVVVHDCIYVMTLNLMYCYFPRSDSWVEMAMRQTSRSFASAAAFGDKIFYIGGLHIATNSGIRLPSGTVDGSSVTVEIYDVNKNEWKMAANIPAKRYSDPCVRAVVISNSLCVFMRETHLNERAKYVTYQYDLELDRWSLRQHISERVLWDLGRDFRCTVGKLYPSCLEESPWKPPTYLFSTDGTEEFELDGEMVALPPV
UniProt Q8N371: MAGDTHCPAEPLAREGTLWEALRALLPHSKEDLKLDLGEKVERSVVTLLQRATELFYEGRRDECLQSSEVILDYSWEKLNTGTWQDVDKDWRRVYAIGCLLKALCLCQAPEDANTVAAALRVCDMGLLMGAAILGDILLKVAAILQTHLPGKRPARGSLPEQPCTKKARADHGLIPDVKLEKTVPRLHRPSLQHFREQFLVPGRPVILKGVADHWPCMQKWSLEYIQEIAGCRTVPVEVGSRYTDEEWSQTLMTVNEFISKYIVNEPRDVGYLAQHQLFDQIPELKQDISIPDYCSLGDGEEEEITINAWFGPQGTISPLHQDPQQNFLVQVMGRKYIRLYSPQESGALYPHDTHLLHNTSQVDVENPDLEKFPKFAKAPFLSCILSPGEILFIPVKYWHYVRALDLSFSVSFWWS
UniProt Q8IV63: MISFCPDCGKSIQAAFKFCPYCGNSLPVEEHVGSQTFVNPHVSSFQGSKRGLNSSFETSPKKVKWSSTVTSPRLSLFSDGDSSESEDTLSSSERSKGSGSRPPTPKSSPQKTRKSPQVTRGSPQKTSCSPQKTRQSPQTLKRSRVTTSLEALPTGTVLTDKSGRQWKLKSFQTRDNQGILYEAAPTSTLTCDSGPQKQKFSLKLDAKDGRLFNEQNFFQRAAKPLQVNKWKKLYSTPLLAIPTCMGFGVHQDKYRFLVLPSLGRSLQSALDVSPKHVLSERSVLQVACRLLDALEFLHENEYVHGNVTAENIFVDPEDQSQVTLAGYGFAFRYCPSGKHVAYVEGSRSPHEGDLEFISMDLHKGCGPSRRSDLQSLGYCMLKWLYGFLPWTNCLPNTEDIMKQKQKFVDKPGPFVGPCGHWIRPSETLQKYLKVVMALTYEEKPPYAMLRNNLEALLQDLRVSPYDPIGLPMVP
UniProt Q8IZ52: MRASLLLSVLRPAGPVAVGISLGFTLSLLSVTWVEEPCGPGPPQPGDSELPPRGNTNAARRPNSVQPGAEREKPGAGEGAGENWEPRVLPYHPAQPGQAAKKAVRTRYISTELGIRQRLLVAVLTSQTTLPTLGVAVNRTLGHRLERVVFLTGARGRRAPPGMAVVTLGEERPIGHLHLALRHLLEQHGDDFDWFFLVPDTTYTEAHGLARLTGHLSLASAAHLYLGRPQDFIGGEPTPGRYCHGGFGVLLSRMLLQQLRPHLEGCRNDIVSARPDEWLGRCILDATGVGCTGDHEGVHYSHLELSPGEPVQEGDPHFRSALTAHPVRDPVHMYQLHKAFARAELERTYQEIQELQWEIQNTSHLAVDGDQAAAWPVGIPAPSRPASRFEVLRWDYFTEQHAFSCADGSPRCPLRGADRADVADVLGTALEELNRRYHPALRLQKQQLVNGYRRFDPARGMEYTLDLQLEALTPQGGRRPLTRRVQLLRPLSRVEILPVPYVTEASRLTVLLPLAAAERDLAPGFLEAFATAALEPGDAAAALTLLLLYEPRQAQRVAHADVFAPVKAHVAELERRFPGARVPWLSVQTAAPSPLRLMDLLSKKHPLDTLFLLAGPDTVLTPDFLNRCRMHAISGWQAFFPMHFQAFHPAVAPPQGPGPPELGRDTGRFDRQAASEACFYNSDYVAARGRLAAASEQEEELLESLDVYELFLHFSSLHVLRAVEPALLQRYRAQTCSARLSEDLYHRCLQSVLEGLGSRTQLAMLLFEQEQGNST
UniProt Q8IWT1: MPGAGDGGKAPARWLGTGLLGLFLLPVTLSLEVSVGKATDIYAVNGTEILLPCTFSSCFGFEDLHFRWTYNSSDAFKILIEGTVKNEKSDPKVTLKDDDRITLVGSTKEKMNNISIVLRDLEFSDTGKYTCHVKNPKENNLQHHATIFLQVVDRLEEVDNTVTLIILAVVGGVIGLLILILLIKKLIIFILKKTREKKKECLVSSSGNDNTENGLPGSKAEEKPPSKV
UniProt Q8IV08: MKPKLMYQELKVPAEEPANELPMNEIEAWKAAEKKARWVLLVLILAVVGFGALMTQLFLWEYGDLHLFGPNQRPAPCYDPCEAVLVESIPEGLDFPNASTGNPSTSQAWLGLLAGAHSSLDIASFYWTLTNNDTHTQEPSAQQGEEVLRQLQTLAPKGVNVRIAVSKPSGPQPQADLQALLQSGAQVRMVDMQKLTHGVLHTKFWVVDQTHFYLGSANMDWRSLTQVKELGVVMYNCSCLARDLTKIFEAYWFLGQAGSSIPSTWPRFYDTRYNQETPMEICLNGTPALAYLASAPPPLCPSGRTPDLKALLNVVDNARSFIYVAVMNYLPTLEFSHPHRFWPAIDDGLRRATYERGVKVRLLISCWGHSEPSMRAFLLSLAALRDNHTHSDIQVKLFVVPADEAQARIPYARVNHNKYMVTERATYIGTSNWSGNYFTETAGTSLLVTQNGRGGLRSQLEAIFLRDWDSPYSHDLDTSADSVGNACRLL
UniProt Q8IYB5: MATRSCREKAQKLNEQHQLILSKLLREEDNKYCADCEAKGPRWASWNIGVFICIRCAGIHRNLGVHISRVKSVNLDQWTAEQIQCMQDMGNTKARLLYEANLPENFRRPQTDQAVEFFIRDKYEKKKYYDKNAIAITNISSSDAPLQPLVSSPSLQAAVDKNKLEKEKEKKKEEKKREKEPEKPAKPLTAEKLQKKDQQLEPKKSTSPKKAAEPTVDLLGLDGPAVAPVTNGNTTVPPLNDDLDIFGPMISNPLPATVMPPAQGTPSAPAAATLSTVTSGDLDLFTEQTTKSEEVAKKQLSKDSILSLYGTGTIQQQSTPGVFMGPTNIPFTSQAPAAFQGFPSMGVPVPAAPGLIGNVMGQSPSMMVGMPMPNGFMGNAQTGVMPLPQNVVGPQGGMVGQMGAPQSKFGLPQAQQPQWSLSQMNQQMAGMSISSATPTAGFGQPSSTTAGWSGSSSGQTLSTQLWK
UniProt Q8N137: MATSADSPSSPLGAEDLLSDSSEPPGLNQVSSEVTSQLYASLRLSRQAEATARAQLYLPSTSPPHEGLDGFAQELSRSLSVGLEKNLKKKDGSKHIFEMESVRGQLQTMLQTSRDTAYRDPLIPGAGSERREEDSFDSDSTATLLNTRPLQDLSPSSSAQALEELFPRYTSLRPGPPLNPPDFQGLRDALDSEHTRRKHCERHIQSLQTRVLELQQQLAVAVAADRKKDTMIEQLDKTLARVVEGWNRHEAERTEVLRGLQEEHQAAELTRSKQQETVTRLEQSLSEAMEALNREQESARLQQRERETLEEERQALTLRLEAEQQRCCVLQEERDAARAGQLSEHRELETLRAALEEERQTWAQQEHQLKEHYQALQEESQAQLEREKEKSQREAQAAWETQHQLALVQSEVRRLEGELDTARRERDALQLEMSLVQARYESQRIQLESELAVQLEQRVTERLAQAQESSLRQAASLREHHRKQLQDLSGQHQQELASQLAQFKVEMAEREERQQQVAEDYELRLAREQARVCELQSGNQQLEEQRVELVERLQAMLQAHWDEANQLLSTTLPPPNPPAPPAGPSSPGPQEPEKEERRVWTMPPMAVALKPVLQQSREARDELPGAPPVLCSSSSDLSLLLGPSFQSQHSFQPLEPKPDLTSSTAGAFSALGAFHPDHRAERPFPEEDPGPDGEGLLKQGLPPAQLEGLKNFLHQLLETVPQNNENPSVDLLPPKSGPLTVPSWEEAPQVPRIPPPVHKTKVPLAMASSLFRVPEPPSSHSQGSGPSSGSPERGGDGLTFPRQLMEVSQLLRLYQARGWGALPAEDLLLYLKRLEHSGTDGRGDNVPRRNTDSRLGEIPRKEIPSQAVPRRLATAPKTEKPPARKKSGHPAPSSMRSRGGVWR
UniProt Q8N1F8: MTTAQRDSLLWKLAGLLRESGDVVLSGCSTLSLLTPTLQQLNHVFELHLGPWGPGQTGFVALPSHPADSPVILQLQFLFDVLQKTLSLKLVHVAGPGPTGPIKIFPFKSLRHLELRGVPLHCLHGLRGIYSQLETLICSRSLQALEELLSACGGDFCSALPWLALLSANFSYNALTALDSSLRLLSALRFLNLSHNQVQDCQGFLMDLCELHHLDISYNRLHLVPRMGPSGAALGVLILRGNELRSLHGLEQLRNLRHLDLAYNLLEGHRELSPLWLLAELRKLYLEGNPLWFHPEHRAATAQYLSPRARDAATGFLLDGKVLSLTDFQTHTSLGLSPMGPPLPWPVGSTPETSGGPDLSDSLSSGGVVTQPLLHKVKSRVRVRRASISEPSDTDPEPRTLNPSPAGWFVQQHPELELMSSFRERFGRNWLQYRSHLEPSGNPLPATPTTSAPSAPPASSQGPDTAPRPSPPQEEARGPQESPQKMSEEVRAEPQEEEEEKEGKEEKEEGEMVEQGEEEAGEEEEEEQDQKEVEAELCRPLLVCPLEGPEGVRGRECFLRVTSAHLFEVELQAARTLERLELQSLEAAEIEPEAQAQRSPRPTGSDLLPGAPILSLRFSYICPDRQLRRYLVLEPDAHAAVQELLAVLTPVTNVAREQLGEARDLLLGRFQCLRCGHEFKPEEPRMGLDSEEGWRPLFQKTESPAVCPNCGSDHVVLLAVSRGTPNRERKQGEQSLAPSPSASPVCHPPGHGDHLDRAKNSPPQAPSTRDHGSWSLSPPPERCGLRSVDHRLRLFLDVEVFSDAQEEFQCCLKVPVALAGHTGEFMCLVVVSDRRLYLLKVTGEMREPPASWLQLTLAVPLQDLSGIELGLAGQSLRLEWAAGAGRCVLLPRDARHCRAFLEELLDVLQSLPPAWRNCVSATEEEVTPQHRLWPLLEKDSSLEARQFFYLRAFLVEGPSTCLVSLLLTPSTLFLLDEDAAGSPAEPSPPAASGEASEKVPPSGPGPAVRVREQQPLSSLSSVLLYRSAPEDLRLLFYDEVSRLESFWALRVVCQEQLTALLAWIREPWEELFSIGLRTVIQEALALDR
UniProt Q8IV50: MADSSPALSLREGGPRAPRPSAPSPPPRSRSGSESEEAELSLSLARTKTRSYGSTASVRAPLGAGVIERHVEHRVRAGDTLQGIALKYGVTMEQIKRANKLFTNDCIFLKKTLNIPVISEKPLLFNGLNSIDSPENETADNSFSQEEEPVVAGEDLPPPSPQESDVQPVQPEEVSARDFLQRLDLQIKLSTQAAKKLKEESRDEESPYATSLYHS

This is one part of the list. Small differences around the control level are noise.

Compound in the test: CN[C@@H]1C[C@H]2O[C@@](C)([C@@H]1OC)n1c3ccccc3c3c4c(c5c6ccccc6n2c5c31)C(=O)NC4 [staurosporine]
Description: log2 fold change of tryptic peptide abundance, ligand vs vehicle (limited proteolysis) (log2 ratio); higher = more trypsin-susceptible (destabilized). The settings on record: ligand concentration: 20 uM; sample: K562 cleared lysate; digestion: 4 min, 22 C (HT-PELSA RT4min, Orbitrap Astral).
Turning to “HPS6 (peptide sequence: THVLLHHCPAFGLLASCR, peptide start residue: 181) (UniProt Q86YV9)”, the log2 fold change was found to be 0.742. As to “KBTBD2 (peptide sequence: KINAENCVR, peptide start residue: 127) (UniProt Q8IY47)”, the log2 fold change was 0.475.

In the case of “UniProt Q8N371 (peptide sequence: AGDTHCPAEPLAR, peptide start residue: 2)”, the log2 fold change was -0.578. For the target “C17orf53 (peptide sequence: LRPVSSRPQETVQAQSSR, peptide start residue: 42) (UniProt Q8N3J3)”, the log2 fold change is -0.337. For “TEX2 (peptide sequence: GSVEEIMSQPK, peptide start residue: 750) (UniProt Q8IWB9)” the value was -0.503.

With “UniProt Q8IWG1 (peptide sequence: KVKTYQK, peptide start residue: 843)”, the log2 fold change was -0.119. Take “GALNT12 (peptide sequence: AAEVWMDEFK, peptide start residue: 383) (UniProt Q8IXK2)”: the log2 fold change came out at 1.09. For “UniProt Q8N184 (peptide sequence: AFSHNEVLMQYQK, peptide start residue: 190)” the value was 0.18; for “UniProt Q8IYT2 (peptide sequence: ALFPHHVIPDSFLK, peptide start residue: 345)”, 0.418. As for “UniProt Q86XE0 (peptide sequence: QELEAEYLAIFKK, peptide start residue: 127)”, the log2 fold change amounted to 0.537. In the case of “VRK3 (peptide sequence: QSPQTLKR, peptide start residue: 135) (UniProt Q8IV63)”, the log2 fold change turned out to be 0.691. Take “CACUL1 (peptide sequence: KITNHLER, peptide start residue: 186) (UniProt Q86Y37)”: the log2 fold change is -0.729.

Consider “APLF (peptide sequence: GPLLGITDK, peptide start residue: 28) (UniProt Q8IW19)”, for which the log2 fold change is -0.122. Consider “RPUSD2 (peptide sequence: VELSPGPPKPAGR, peptide start residue: 65) (UniProt Q8IZ73)”, for which the log2 fold change is -0.0892. Consider “SMYD4 (peptide sequence: MQEKDSLTESFPAALAK, peptide start residue: 198) (UniProt Q8IYR2)”, for which the log2 fold change was -0.678. Turning to “FNBP4 (peptide sequence: TKMPSLVK, peptide start residue: 941) (UniProt Q8N3X1)”, the log2 fold change was -0.44. For the target “THOC6 (peptide sequence: ERSPEVLSGGEDGAVR, peptide start residue: 178) (UniProt Q86W42)”, the log2 fold change is -0.506. Take “CHPF (peptide sequence: AHVAELER, peptide start residue: 568) (UniProt Q8IZ52)”: the log2 fold change was 0.485.

Take “MICALL1 (peptide sequence: QREEEEDKMLEAMIK, peptide start residue: 807) (UniProt Q8N3F8)”: the log2 fold change is 0.48. To “MAML2 (peptide sequence: QQLLLQQQMLADAEK, peptide start residue: 769) (UniProt Q8IZL2)” belongs 0.264; to “FTSJ3 (peptide sequence: AEGYAEGDLTLYHR, peptide start residue: 238) (UniProt Q8IY81)”, -0.218; to “UniProt Q8IWT1 (peptide sequence: LIIFILK, peptide start residue: 186)”, 0.0738.

As for “SBF2 (peptide sequence: WFVLDVTK, peptide start residue: 1764) (UniProt Q86WG5)”, the log2 fold change was -0.452.

For “PLD3 (peptide sequence: ALLNVVDNAR, peptide start residue: 310) (UniProt Q8IV08)”, the log2 fold change is -0.163. To “TMEM123 (peptide sequence: TIDEHDAII, peptide start residue: 200) (UniProt Q8N131)” belongs 0.142. For “SMAP1 (peptide sequence: EPEKPAKPLTAEK, peptide start residue: 180) (UniProt Q8IYB5)” the value was -0.196; for “CNTROB (peptide sequence: QLMEVSQLLR, peptide start residue: 803) (UniProt Q8N137)”, -0.192; for “UniProt Q86W50 (peptide sequence: IIHDSLQLK, peptide start residue: 231)”, 0.356. With “C1orf174 (peptide sequence: LASAQEVAGSTSAK, peptide start residue: 26) (UniProt Q8IYL3)”, the log2 fold change was -0.1. In the case of “UniProt Q86WZ6 (peptide sequence: GFGWSVNLR, peptide start residue: 388)”, the log2 fold change is 0.648.

For the target “CEP57 (peptide sequence: SPSKPTLAYPESNSR, peptide start residue: 53) (UniProt Q86XR8)”, the log2 fold change turned out to be 0.789. To “ARID3B (peptide sequence: QPHLAPLQMDAR, peptide start residue: 17) (UniProt Q8IVW6)” belongs 0.147; to “UniProt Q8IWF6 (peptide sequence: SPNFDGWFK, peptide start residue: 511)”, 0.806; to “STK11IP (peptide sequence: FSYICPDR, peptide start residue: 618) (UniProt Q8N1F8)”, 0.229. As to “UniProt Q8IYK4 (peptide sequence: TPDYVQIR, peptide start residue: 215)”, the log2 fold change was -0.179. In the case of “ZCCHC24 (peptide sequence: GEALSNSVYK, peptide start residue: 81) (UniProt Q8N2G6)”, the log2 fold change is -0.0658. Turning to “LYSMD2 (peptide sequence: LFTNDCIFLKK, peptide start residue: 101) (UniProt Q8IV50)”, the log2 fold change is -0.0808.
